Results are given in words; binding and its absence hold for the method and conditions named. In cells and extracts the contact can be indirect. Some entries that bind do so weakly or less than the wild type. Each block holds one molecule with its values, some of them ahead of it.
Target: SPTBN1::GFP (human βII spectrin fused to eGFP) (human) (UniProt Q01082)
Assay: co-IP

Amino acid sequences for entries named in this document (tags omitted).
UniProt Q01082: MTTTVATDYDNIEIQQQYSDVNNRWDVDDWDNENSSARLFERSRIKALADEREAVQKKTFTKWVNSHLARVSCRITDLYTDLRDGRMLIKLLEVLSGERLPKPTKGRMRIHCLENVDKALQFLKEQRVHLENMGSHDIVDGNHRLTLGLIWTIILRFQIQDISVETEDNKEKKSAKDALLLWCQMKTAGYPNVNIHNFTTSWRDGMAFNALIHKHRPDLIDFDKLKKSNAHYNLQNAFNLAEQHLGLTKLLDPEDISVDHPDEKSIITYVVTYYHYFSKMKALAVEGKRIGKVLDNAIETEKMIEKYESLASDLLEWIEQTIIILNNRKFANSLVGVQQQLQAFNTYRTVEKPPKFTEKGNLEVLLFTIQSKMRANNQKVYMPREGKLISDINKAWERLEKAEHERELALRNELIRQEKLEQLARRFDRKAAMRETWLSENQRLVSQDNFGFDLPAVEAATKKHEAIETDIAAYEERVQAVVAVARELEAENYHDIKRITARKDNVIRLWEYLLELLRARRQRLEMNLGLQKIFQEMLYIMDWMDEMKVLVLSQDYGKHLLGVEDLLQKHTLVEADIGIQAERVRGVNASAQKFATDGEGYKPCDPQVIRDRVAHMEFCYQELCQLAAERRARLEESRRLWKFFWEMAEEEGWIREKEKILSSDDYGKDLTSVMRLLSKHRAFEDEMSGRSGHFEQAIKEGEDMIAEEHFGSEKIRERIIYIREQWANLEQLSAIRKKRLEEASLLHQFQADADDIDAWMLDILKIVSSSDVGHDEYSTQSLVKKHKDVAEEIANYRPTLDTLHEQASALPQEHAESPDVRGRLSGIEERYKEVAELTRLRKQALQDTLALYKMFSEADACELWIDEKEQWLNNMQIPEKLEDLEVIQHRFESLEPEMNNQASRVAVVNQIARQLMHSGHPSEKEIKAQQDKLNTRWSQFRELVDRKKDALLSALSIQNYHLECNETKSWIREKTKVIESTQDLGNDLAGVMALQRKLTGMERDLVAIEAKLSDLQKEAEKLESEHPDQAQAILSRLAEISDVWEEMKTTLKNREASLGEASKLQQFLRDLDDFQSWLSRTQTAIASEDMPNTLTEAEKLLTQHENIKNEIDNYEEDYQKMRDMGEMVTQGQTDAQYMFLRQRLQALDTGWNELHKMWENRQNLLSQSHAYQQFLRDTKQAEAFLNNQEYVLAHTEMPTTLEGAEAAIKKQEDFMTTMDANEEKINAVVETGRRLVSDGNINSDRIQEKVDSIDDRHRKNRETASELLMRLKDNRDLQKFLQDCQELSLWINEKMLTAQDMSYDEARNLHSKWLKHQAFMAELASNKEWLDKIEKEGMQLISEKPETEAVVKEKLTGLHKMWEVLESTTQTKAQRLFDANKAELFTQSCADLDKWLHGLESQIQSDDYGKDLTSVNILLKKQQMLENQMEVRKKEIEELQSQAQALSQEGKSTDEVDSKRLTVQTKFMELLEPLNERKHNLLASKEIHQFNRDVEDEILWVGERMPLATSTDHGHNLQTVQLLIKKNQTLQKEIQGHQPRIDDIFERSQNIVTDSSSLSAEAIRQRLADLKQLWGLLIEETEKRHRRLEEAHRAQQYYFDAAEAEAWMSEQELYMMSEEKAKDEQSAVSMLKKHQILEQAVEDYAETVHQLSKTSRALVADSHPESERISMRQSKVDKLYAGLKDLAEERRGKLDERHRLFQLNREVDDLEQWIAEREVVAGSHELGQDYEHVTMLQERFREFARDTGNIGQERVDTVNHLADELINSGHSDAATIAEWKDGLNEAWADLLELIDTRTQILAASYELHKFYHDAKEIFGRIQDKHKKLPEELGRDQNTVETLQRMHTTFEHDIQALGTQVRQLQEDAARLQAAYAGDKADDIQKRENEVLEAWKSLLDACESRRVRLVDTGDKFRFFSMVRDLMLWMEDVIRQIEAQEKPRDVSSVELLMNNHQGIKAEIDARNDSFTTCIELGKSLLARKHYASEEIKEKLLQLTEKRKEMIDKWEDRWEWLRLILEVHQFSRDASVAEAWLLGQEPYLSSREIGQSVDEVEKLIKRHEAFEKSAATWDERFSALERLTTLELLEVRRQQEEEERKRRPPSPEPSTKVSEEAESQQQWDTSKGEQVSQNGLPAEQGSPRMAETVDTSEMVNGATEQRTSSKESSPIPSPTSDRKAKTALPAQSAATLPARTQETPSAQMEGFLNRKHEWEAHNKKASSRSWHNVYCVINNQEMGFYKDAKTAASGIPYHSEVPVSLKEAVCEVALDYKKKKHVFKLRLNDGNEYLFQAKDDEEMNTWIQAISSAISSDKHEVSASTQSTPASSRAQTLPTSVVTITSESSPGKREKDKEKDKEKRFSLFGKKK
UniProt Q9UIL1: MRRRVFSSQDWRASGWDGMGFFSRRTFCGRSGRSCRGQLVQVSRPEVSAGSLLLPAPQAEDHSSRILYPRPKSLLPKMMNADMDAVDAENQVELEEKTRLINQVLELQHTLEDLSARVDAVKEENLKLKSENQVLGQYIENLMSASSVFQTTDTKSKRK

binding: binds
Molecule: HALO::SCOC (from UniProt Q9UIL1 1-159)

binding: binds
B1: mCherry::FEZ1 (protein, UniProt Q99689 1-392)
chain: MEAPLVSLDEEFEDLRPSCSEDPEEKPQCFYGSSPHHLEDPSLSELENFSSEIISFKSMEDLVNEFDEKLNVCFRNYNAKTENLAPVKNQLQIQEEEETLQDEEVWDALTDNYIPSLSEDWRDPNIEALNGNCSDTEIHEKEEEEFNEKSENDSGINEEPLLTADQVIEEIEEMMQNSPDPEEEEEVLEEEDGGETSSQADSVLLQEMQALTQTFNNNWSYEGLRHMSGSELTELLDQVEGAIRDFSEELVQQLARRDELEFEKEVKNSFITVLIEVQNKQKEQRELMKKRRKEKGLSLQSSRIEKGNQMPLKRFSMEGISNILQSGIRQTFGSSGTDKQYLNTVIPYEKKASPPSVEDLQMLTNILFAMKEDNEKVPTLLTDYILKVLCPT

Reference: doi:10.1101/2022.05.09.491207
